Measurements taken from article PMC5440813.

Protein sequences, listed by entry. Tags and fused reporters are not part of them. Lines headed by an entry give the natural chain unless they say otherwise; changes in a name come on top.
UniProt Q9ZP06: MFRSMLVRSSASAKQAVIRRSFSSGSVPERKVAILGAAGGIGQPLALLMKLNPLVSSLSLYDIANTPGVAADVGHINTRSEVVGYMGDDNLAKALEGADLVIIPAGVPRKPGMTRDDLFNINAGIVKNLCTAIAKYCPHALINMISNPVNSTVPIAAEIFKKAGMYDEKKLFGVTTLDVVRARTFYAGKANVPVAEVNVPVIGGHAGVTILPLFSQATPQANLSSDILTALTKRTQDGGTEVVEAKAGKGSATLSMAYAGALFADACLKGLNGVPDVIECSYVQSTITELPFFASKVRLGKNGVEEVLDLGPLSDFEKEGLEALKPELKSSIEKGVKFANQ
UniProt Q9LKA3: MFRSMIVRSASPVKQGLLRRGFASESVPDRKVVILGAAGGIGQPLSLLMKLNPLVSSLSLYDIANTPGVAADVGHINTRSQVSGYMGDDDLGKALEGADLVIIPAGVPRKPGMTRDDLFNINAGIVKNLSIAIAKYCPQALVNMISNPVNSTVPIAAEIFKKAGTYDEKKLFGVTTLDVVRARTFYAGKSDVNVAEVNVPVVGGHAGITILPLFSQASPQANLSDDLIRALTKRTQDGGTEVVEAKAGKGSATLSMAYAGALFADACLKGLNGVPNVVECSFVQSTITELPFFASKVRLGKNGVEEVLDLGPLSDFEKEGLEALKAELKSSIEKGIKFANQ
UniProt Q8LPJ5: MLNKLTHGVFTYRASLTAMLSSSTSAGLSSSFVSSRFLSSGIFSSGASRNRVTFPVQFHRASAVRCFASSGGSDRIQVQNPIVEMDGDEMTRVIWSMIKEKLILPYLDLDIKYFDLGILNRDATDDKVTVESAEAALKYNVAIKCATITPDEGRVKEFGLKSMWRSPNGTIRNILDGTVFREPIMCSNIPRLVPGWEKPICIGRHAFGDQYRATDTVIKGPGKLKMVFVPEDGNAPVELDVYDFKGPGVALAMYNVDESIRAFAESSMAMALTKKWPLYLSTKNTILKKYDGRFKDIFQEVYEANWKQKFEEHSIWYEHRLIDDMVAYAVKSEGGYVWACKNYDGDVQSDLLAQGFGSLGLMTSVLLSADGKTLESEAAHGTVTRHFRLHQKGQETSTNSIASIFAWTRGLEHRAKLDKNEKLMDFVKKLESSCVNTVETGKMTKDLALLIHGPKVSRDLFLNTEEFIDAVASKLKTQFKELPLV

How the values were obtained:
Test in all cases: affinity purification with mass spectrometry + split reporter + two-hybrid; compromise score that integrates the AP-MS, split-LUC and Y2H data of the 38 x 38 screen (STATIS-like); interaction: compromise score above the threshold of about 0.6
[1] = molecular target: T1, citrate synthase (CSY) 4 (Arabidopsis thaliana) (UniProt P20115)
T1 sequence: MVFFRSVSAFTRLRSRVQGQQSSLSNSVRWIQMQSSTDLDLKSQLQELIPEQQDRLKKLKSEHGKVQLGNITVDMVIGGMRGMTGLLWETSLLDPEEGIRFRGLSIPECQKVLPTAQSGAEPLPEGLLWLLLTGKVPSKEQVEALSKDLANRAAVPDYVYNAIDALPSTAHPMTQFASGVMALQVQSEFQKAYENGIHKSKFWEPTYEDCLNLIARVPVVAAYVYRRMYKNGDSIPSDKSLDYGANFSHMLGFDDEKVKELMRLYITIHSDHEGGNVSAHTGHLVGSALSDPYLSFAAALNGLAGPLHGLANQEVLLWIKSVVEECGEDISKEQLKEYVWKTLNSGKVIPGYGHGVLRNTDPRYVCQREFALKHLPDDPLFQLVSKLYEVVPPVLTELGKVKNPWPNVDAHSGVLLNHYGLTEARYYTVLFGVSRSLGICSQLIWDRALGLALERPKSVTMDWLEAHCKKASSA

[2] = molecular target: T2, isocitrate dehydrogenase (IDH) subunit IDH2 (Arabidopsis thaliana) (UniProt P93032)
T2 sequence: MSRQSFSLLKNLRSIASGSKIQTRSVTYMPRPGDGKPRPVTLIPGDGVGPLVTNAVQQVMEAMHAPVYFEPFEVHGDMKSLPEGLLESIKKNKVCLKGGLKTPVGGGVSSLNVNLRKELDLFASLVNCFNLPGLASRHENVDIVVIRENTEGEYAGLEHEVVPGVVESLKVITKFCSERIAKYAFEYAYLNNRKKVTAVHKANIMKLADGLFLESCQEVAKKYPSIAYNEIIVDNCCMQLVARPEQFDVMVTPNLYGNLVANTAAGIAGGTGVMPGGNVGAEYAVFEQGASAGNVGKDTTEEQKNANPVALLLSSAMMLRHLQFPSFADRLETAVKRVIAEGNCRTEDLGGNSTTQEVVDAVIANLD

[3] = molecular target: T3, isocitrate dehydrogenase (IDH) subunit IDH6 (Arabidopsis thaliana) (UniProt Q8LG77)
T3 sequence: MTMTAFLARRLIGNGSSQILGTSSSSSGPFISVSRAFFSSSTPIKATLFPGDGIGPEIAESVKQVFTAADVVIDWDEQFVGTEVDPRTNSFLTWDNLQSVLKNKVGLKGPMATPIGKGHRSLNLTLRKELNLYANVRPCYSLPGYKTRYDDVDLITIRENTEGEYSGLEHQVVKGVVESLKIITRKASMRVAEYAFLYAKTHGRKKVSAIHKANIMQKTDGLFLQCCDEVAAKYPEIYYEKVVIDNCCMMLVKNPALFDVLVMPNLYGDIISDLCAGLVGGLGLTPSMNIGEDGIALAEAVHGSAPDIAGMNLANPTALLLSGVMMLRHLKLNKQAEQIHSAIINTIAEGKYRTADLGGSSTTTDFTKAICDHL

[4] = molecular target: malate dehydrogenase (MDH) 1 (Arabidopsis thaliana) (UniProt Q9ZP06)
[5] = molecular target: malate dehydrogenase (MDH) 2 (Arabidopsis thaliana) (UniProt Q9LKA3)
[6] = molecular target: T4, isocitrate dehydrogenase (IDH) subunit IDH1 (Arabidopsis thaliana) (UniProt Q8LFC0)
T4 sequence: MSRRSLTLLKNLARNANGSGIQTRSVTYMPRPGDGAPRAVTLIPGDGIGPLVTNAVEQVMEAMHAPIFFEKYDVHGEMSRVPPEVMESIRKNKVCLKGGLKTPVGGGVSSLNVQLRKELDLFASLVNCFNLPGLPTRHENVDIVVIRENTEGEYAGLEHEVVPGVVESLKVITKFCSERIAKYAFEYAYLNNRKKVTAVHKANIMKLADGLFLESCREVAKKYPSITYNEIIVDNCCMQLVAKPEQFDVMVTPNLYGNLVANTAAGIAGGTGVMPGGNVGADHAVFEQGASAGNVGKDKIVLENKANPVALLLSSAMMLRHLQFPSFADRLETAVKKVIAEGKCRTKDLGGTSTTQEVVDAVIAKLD

[7] = molecular target: oxoglutarate dehydrogenase complex (ODC) subunit ODC2-2 (Arabidopsis thaliana)
[8] = molecular target: oxoglutarate dehydrogenase complex (ODC) subunit ODC2-1 (Arabidopsis thaliana)

For “malate dehydrogenase (MDH) 2 (from UniProt Q9LKA3) (enzyme)”, the binding [1] was “binds”, the binding [2] was “binds” and the binding [3] was “binds”.

“NADP+-dependent isocitrate dehydrogenase (ICDH) (from UniProt Q8LPJ5) (enzyme)” was tested, and the binding [4] was “binds” and the binding [5] was “binds”.

“malate dehydrogenase (MDH) 1 (from UniProt Q9ZP06) (enzyme)” was tested, and the binding [1] was “binds”.

B1: aconitase 3 (ACO3) (enzyme, UniProt Q9SIB9 1-990)
chain: MYLTASSSASSSIIRAASSRSSSLFSFRSVLSPSVSSTSPSSLLARRSFGTISPAFRRWSHSFHSKPSPFRFTSQIRAVSPVLDRLQRTFSSMASEHPFKGIFTTLPKPGGGEFGKFYSLPALNDPRVDKLPYSIRILLESAIRNCDNFQVTKEDVEKIIDWEKTSPKQVEIPFKPARVLLQDFTGVPAVVDLACMRDAMNKLGSDSNKINPLVPVDLVIDHSVQVDVARSENAVQANMELEFQRNKERFAFLKWGSTAFQNMLVVPPGSGIVHQVNLEYLGRVVFNTKGLLYPDSVVGTDSHTTMIDGLGVAGWGVGGIEAEATMLGQPMSMVLPGVVGFKLAGKMRNGVTATDLVLTVTQMLRKHGVVGKFVEFYGNGMSGLSLADRATIANMSPEYGATMGFFPVDHVTLQYLKLTGRSDETVAMIEAYLRANNMFVDYNEPQQDRVYSSYLELNLDDVEPCISGPKRPHDRVTLKEMKADWHSCLDSKVGFKGFAIPKEAQEKVVNFSFDGQPAELKHGSVVIAAITSCTNTSNPSVMLGAGLVAKKACDLGLQVKPWIKTSLAPGSGVVTKYLLKSGLQEYLNEQGFNIVGYGCTTCIGNSGEINESVGAAITENDIVAAAVLSGNRNFEGRVHPLTRANYLASPPLVVAYALAGTVNIDFETEPIGKGKNGKDVFLRDIWPTTEEIAEVVQSSVLPDMFRATYESITKGNPMWNKLSVPENTLYSWDPNSTYIHEPPYFKDMTMDPPGPHNVKDAYCLLNFGDSITTDHISPAGNIQKDSPAAKFLMERGVDRKDFNSYGSRRGNDEIMARGTFANIRIVNKLMNGEVGPKTVHIPSGEKLSVFDAAMRYKSSGEDTIILAGAEYGSGSSRDWAAKGPMLQGVKAVIAKSFERIHRSNLVGMGIIPLCFKSGEDADTLGLTGHERYTIHLPTDISEIRPGQDVTVTTDNGKSFTCTVRFDTEVELAYFNHGGILPYVIRNLSKQ
With B1 the binding [6] was “binds”, the binding [2] was “binds” and the binding [3] was “binds”.

B2: isocitrate dehydrogenase (IDH) subunit IDH5 (enzyme, UniProt Q945K7 1-374)
chain: MTMAANLARRLIGNRSTQILGAVNSSSGAASSVARAFCSSTTPITATLFPGDGIGPEIAESVKKVFTTAGVPIEWEEHYVGTEIDPRTQSFLTWESLESVRRNKVGLKGPMATPIGKGHRSLNLTLRKELNLYANVRPCYSLPGYKTRYDDVDLITIRENTEGEYSGLEHQVVRGVVESLKIITRQASLRVAEYAFLYAKTHGRERVSAIHKANIMQKTDGLFLKCCREVAEKYPEITYEEVVIDNCCMMLVKNPALFDVLVMPNLYGDIISDLCAGLVGGLGLTPSCNIGEDGVALAEAVHGSAPDIAGKNLANPTALLLSGVMMLRHLKFNEQAEQIHSAIINTIAEGKYRTADLGGSSTTTEFTKAICDHL
In the case of B2, the binding [7] is reported as “binds”.

B3: isocitrate dehydrogenase (IDH) subunit IDH6 (enzyme, UniProt Q8LG77 1-374)
chain: MTMTAFLARRLIGNGSSQILGTSSSSSGPFISVSRAFFSSSTPIKATLFPGDGIGPEIAESVKQVFTAADVVIDWDEQFVGTEVDPRTNSFLTWDNLQSVLKNKVGLKGPMATPIGKGHRSLNLTLRKELNLYANVRPCYSLPGYKTRYDDVDLITIRENTEGEYSGLEHQVVKGVVESLKIITRKASMRVAEYAFLYAKTHGRKKVSAIHKANIMQKTDGLFLQCCDEVAAKYPEIYYEKVVIDNCCMMLVKNPALFDVLVMPNLYGDIISDLCAGLVGGLGLTPSMNIGEDGIALAEAVHGSAPDIAGMNLANPTALLLSGVMMLRHLKLNKQAEQIHSAIINTIAEGKYRTADLGGSSTTTDFTKAICDHL
With B3 the binding [8] was “binds” and the binding [7] was “binds”.

No constants are given. Whether binding was seen depends on the method and setting. Binding seen in cells or lysates may run through a third protein. These calls come from enrichment with a bait or labelling near it, and not all partners need be listed.
